This note sets out measurements from patent US20230146675A1, “PYRIMIDO[5,4-d]PYRIMIDINE DERIVATIVES AS ENT INHIBITORS FOR THE TREATMENT OF CANCERS, AND COMBINATION THEREOF WITH ADENOSINE RECEPTOR ANTAGONISTS” (ITEOS BELGIUM SA, priority 2020, published 2023).

Protein sequences, listed by entry. Tags and fused reporters are not part of them.
UniProt Q99808, whole entry: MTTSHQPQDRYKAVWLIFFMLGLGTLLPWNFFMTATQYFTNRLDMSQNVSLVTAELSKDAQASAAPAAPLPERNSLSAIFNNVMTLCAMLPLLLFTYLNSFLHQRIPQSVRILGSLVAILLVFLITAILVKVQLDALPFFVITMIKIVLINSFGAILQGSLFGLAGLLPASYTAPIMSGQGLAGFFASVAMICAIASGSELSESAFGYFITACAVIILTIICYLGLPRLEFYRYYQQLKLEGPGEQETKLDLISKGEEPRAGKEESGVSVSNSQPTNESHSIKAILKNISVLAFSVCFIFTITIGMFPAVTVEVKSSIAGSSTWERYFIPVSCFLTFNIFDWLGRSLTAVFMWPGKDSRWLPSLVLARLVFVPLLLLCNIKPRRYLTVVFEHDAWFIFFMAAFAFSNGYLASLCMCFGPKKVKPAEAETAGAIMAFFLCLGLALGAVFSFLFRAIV

Molecules are shown by their SMILES. The match of structure and compound is tentative.

This assay has as its target human ENT1 (Homo sapiens, UniProt Q99808). Briefly: ENT1 binding assay (competition with Sahenta-DY647 on JAR cells). Conditions: read-out: Binding Assay IC50, binned IC50.

Regarding `COCCN(CCOC)c1nc(N2CCN(c3nccs3)CC2)c2nc(N(CCOC)CCOC)nc(N3CCCCC3)c2n1`, the IC50 was 100 to 500 nM.

As for `COCCN(CCOC)c1nc(N2CCN(c3nccs3)CC2)c2nc(N(CCO)CCO)nc(N3CCN(c4nccs4)CC3)c2n1`, the IC50 was 100 to 500 nM.
